Assay [1] has as its target CD3 on Jurkat cells (UniProt P07766). As to the kind of experiment: FACS on Jurkat cells.
Assay [2] addresses STEAP1 on 293/STEAP1 cells and LnCap cells (UniProt Q9UHE8). Nature of the assay: FACS on 293/STEAP1 cells.
Assay [3] concerns the target PSMA on 293/PSMA cells and LnCap cells (UniProt Q04609). Nature of the assay: FACS on 293/PSMA cells.

Protein sequences, listed by entry. Tags and fused reporters are not part of them. Residues count along the entry.
UniProt P07766, residues 23-207: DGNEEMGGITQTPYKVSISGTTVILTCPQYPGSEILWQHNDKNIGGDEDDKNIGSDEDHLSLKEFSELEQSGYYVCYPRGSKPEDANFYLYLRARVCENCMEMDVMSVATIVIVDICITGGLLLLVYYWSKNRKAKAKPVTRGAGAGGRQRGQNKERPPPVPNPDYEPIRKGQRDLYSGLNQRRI
UniProt Q9UHE8: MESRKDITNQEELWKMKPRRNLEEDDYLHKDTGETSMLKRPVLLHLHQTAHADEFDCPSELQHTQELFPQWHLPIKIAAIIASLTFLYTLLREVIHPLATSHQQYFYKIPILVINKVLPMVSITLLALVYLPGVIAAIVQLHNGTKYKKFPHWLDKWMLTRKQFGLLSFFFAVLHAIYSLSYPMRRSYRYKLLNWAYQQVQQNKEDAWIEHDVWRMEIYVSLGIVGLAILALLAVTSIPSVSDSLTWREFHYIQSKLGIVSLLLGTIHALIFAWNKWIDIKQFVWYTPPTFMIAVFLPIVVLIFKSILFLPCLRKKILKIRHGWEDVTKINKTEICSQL
UniProt Q04609: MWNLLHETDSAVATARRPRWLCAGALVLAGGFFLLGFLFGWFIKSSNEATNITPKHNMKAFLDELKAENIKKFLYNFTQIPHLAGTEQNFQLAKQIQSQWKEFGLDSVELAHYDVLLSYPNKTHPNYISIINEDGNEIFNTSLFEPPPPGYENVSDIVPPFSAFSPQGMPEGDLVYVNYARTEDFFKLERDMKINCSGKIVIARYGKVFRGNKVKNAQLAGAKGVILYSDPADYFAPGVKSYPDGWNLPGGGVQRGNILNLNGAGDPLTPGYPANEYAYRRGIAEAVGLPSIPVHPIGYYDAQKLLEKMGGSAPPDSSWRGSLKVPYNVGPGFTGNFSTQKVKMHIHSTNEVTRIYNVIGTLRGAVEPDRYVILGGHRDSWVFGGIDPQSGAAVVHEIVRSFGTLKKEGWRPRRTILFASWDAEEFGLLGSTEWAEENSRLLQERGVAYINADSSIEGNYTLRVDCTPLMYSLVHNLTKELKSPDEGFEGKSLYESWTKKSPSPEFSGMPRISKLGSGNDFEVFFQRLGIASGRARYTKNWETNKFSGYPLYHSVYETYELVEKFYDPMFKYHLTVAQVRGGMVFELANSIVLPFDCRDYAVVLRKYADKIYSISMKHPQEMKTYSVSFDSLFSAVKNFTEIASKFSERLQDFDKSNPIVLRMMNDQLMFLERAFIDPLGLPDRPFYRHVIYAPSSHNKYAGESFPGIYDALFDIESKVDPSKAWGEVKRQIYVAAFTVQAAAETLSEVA

Results are given in words; binding and its absence hold for the method and conditions named. Some entries that bind do so weakly or less than the wild type.

B1: AB596-MH2n/p (antibody, V domains shown)
VH: EVTLKESGPVLVKPTETLTLTCTVSGFSLTSFGVSWVRQPPGKGLEWIAAIWNSGRMDYNSALKSRLTISRDTSKSQVVLTMTNMDPVDTAMYFCARSGGSHWGQGTLVTVSS
VL: DIQMTQSPSSLSASVGDRVTITCKPSQNIDKYLNWYQQKPGKAPKRLIYNTNNLQTGIPSRFSGSGSGTEYTLTISSLQPEDFATYFCLQHRSGWTFGGGTKVEIKR
Take B1: the binding entry in assay [1] is recorded as “binds”.

B2: AB596 (parental anti-CD3 antibody) (antibody, V domains shown)
VH: B1 VH
VL: DIQMTQSPSSLSASVGDRVTITCKPSQNIDKYLNWYQQKPGKAPKRLIYNTNNLQTGIPSRFSGSGSGTEYTLTISSLQPEDFATYFCLQHRSGWTFGGGTKVEIK
Consider B2, for which, in assay [1], the binding result is recorded as “binds”.

B3: TPP3956 (parental anti-STEAP1 antibody) (antibody, V domains shown)
VH: EVQLVESGGGVVQPGRSLRLSCVASGFPFNNYWMTWIRQAPGKGLEWIASITITGGTTYYPGSVKGRFTISRDNSKSTLYLQMNSLRAEDTAVYYCTRERYSTEYYPYYWYFDFWGQGTMVTVSS
VL: DIQMTQSPSSLSASVGDRVTITCRTSQDIGNYLRWFQQKPGKSPKLMIYDAINLAAGVPSRFSGSGSGTDYTLTISSLQPEDVATYYCLQHNEYPYTFGQGTKLEIK
Consider B3, for which, in assay [2], the binding entry is “binds”.

B4: hPSMA17.1 (parental anti-PSMA antibody) (antibody, V domains shown)
VH: EVQLVQSGAEVKKPGSSVKVSCKASGYTFTDYYMNWVKQAPGKGLEWIGLINPNSGGINYNQKFKVKATLTVDKSTSTAYMELSSLRSEDTAVYYCARRDYGTSGDYWGQGTTVTVSS
VL: DIQMTQSPSSLSASVGDRVTITCHASQNINVWLSWYQQKPGKAPKLLIYKASNLHTGVPSRFSGSGSGTDFTLTISSLQPEDFATYYCQQGQSYPLTFGQGTKLEIK
For B4, the binding entry in assay [3] is recorded as “binds”.

These data come from patent publication US20180194861A1.
